Experimental data published in patent US20260001792A1, “METHOD FOR PRODUCING SLIME-SUPPRESSING AUXILIARY AGENT FOR REVERSE OSMOSIS MEMBRANE, SLIME-SUPPRESSING AUXILIARY AGENT FOR REVERSE OSMOSIS MEMBRANE, AND WATER TREATMENT METHOD” (ORGANO CORPORATION, priority 2022, published 2026).

Assay: Effects on membrane: flux and EC rejection rate before/after contact with agent
Conditions: ESPA2, pH 7, after contact at CT value 30,000

## OCl [NaClO, sodium hypochlorite]
  EC rejection rate after contact: 88.5%
